Reference: PMC12037035
These are yes or no findings as the source states them, for the method shown. In cells and extracts the contact can be indirect. Some entries that bind do so weakly or less than the wild type. For some assays here: Tags and fused reporters may be left off the sequences shown. Blank lines part the entries; values can stand above or below the binder they belong to.

Columns and labels:
[1] = target: T1, CD20 (MS4A1), endogenous in BJAB B cells (human (endogenous in BJAB)) (UniProt P11836); experiment: proximity ligation; in situ PLA (Duolink FarRed) on PFA-fixed BJAB cells with primary antibodies against CD20 and CD70; endogenous proteins
T1 sequence: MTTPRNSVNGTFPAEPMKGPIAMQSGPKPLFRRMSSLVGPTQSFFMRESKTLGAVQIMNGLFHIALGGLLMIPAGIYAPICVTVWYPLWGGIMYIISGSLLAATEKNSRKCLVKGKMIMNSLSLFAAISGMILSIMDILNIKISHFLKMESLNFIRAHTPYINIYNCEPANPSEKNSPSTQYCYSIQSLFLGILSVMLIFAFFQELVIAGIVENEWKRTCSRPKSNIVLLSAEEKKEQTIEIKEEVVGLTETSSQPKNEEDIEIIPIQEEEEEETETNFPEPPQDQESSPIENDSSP

[2] = target: T2, CD70 with C-terminal triple repeat Strep II tag (full length, expressed in HEK293-E+ cells) (human) (UniProt P32970); experiment: pull-down; CD70 (triple Strep II tag) and CD20-His6 coexpressed in HEK293-E+ cells (DNA ratio 1:5); lysis in 1% DDM, 50 mM K-PO4 pH 7.8, 200 mM KCl; CD70 held on Streptactin resin, eluted with 7 mM desthiobiotin, then Superose 6 gel filtration; western blot with anti-His and anti-Strep; 4 °C
T2 sequence: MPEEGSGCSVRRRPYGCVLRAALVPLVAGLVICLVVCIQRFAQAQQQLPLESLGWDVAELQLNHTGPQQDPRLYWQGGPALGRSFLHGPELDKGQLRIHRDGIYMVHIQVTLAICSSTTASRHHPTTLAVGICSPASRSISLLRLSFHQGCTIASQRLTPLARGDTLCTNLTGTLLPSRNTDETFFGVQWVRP

binding [1]: binds
B1: CD70, endogenous in BJAB B cells (protein, UniProt P32970 1-193)
chain: T2 sequence

binding [2]: binds
B2: CD20-His (CD20 with C-terminal His6 tag, expressed in HEK293-E+ cells) (protein, UniProt P11836 1-297)
chain: T1 sequence
